Test results from patent US20250243278A1.
Where a chain is given by its changes, count along the chain named. No constants are given. Whether binding was seen depends on the method and setting. Binding can be weak; no strength is given.

B1: 6H4 VHH (VHH)
VHH: QVQLQESGGDLVQPGGSLTLSCAASGGSFSSDSMGWFRQAPRKARGFVGAVTSAGSTWYEDSVKGRFTISRDNAKNTVYLQMNSLKPEDTAVYYCAATTIATMPWLMVSSRYAYWGQGTQVTVSS
B2: 14C4 VHH (VHH)
VHH: B1 VHH with Q5V, D10G, L11V, P14A, T19R, G27R, S28T, D32Y, S33G
B3: 7F3 VHH (VHH)
VHH: B1 VHH with Q5V, E6D, D10G, P14A, G16D, T19R, G27R, S28P, S30N, D32W
B4: 19C10 VHH (VHH)
VHH: B1 VHH with Q5V, D10G, P14A, T19R, G27S, S28T, S31K, D32Y, S33A
B5: 7H7 VHH (VHH)
VHH: B1 VHH with Q3K, Q5E, D10G, P14A, T19R, G27S, S28T, S31K, D32Y, S33A
B6: 20C11 VHH (VHH)
VHH: QVQLVESGGGLVQPGGSLRLSCAASELTLDYNIGWFRQAPRKARGFVGAVTSAGSTWYEDSVKGRFTISRDNAKNTVYLQMNSLKPEDTAVYYCAATTIATMPWLMVSSRYAYWGQGTQVTVSS
B7: 14B12 VHH (VHH)
VHH: QVQLVESGGGVVQAGGSLRLSCAASGRTFRNFGMGWFRQAPRKARGFVGAVTSAGSTWYEDSVKGRFTISRDNAKNTVYLQMNSLKPEDTAVYYCAATTIATMPWLMVSSRYAYWGQGTQVTVSS
B8: 5E8 VHH (VHH)
VHH: QVKLEESGGGLVQAGGSLKLSCAASGRTFSSDSMAWFREAPGKARGFVAVVSRSAGSTWYEDSVKGRFTISRDNAKNTVYLQMNSLKPEDTAVYYCAATDIATMPWLMVSSRYDYWGQGTQVTVSS
B9: 5H8 VHH (VHH)
VHH: B8 VHH with L11Q, G16D, L18R, K19T, A23V
B10: 18B5 VHH (VHH)
VHH: B8 VHH with K3Q, E5Q, K19T, A23T, R27I
B11: 21F11 VHH (VHH)
VHH: QVQLVESGGGLVQPGGSLRLSCAASGDDFFTINAIDAIGWFRQAPRKARGFVGAVTSAGSTWYEDSVKGRFTISRDNAKNTVYLQMNSLKPEDTAVYYCAATTIATMPWLMVSSRYAYWGQGTQVTVSS

molecular target: cynomolgus B7H3 (cynomolgus); test: ELISA on cynomolgus B7H3, OD450

Row | binding | Binder
1 | binds | B1
2 | binds | B2
3 | binds | B3
4 | binds | B4
5 | binds | B5
6 | binds | B6
7 | binds | B7
8 | binds | B8
9 | binds | B9
10 | binds | B10
11 | binds | B11

molecular target: cynomolgus B7H3 (cynomolgus); test: ELISA, VHH on cynomolgus B7H3 (FIG. 1B)

Row | binding | Binder
12 | binds | B1
13 | binds | B2
14 | binds | B3
15 | binds | B4
16 | binds | B5
17 | binds | B6
18 | binds | B7
19 | binds | B8
20 | binds | B9
21 | binds | B10
22 | binds | B11
